# Library screen at single concentrations

Data taken from ChEMBL document CHEMBL3988442, “University of Dundee, Small-Polar-MMV Screening Library” (2021).

Each number is a percent effect as filed.
How 0% and 100% were set is not recorded. Most values in the screen are low, and negative values occur.
This is an unselected part of the compounds tested.
Two or more numbers in one place are separate tests of the same structure; such repeats can differ widely.

A: 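Growth of Mycobacterium tuberculosis over 4 days (cholesterol / DPPC medium with tyloxapol); the read-out is not stated. Concentration: 50 µM. Direction is inferred from retests: higher values go with more growth inhibition. Size under these conditions: about 69,000 compounds, about 370 of them at 50% or above in at least one test.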
B: 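Growth of Mycobacterium tuberculosis over 3 days (7H9 medium with glucose and tyloxapol); the read-out is not stated. Concentration: 50 µM. The record gives no direction; compounds that gave an IC50 in retests scored well above the rest, so higher reads as more growth inhibition. Of about 69,000 compounds tested this way, about 760 (1.1%) reached 50% or more in at least one test.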

| Compound | A | B |
|---|---|---|
| `Cn1c(CC(=O)O)c(Sc2ccccc2)c2ccccc21` | -36.34% | 4.498% and -6.009% |
| `O=C(O)C(F)(F)F.[H][C@]12CCN(C(=O)c3ccc4[nH]ccc4c3)C[C@@]1([H])OCCN(CC1CC1)C2` | -7.222% | 11.98% |
| `CN1C(=O)CC(C(=O)O)C12CCN(Cc1ccc(F)c(Cl)c1)CC2` (stereo not given) | 3.516% | 18.68% and -6.289% |
| `CC1COCCN1Cc1nc(-c2ccc(F)cc2)no1` (stereo not given) | -6.049% | 2.559% and 1.551% |
| `Cc1ncsc1C(=O)NCc1ccnc(OCC(F)(F)F)c1` | 13.02% | 28.8% |
| `CCC(CNC(=O)c1nc(=O)[nH][nH]1)Oc1ccccc1C(F)(F)F` (stereo not given) | 9.967% | 1.067% |
| `O=C(Cn1nc(-c2ccc(F)cc2)oc1=O)NCc1ccc(F)cc1` | -21.58% | -28.37% |
| `CCc1nc(C2CCCN2C(=O)c2ncoc2CC)no1` (stereo not given) | 14.62% | -11.25% |
| `COc1ncnc(N(C)C)c1NC(=O)Cc1cc(F)ccc1F` | -10.94% | -1.947% |
| `Cc1ccc(CNCc2c(C)nn(C)c2N(C)C)cn1` | 1.4% | -1.713% and -10.86% |
| `Cc1ccc2nc(CN(Cc3ccc(C)o3)C(C)C)cc(=O)n2c1` | -12.57% | -14.27% |
| `CCCC(NC(=O)c1ccccn1)c1nnc2ccccn12` (stereo not given) | -16.16% | -18.43% |
| `CN1CCCC(c2cccc(-c3cccc(F)c3)n2)C1` (stereo not given) | 43.64% | 38.8% |
| `[H][C@]12CO[C@H](CNS(C)(=O)=O)[C@@]1([H])CCN(Cc1cccnc1)C2` | 9.52% | 12.23% |
| `c1ccc2c(c1)cnn2CCCNC1CCOC2(CCOCC2)C1` (stereo not given) | -22.48% | 5.546% |
| `Cc1cc(C)c(CNC(=O)N2CCCC2c2cccc(F)c2)c(=O)[nH]1` (stereo not given) | -17.29% | -17.3% |
| `COc1ccc(NC(=O)NCC(O)c2ccc(F)cc2F)c(OC)c1` (stereo not given) | -37.99% | -20.56% |
| `O=C(NC[C@]1(O)CN(Cc2ncccc2F)C[C@H]1O)c1cc[nH]n1` | 4.598% and 26.19% | 12.62% |
| `[H][C@@]12CCN(Cc3nc(C)cs3)C[C@@]1([H])O[C@@H](c1nnc(C)[nH]1)C2` | 37.94% | -65.35% |
| `CNC(=O)c1cc2c(nc1NCC(C)C)CCN(CCOC)CC2.O=C(O)C(F)(F)F.O=C(O)C(F)(F)F` | 12.17% and -0.5859% | -2.59% and -5.246% |
| `COc1ncc(Cl)c(NCc2ccc(C(=O)N(C)C)cc2)n1` | -24.81% | -49.97% |
| `O=C(O)C(F)(F)F.[H][C@@]12CCC(=O)N(c3cnn(C)c3)[C@]1([H])CCN2C(=O)c1cscn1` | -18.6% and -15.24% | -30.62% |
| `CC(=O)NC(C)C(=O)Nc1ccc(OCc2cccc(F)c2)cc1C` (stereo not given) | 19.97% | 24.59% |
| `Cc1noc(C)c1CS(=O)(=O)Cc1nc(C2CC2)no1` | -33.71% | 9.623% and -13.92% |
| `[H][C@]12C[C@H](C(=O)NCC3CC3)N(C)[C@@]1([H])CN(c1ncccn1)C2` | -2.288% | 16.63% |
| `CC(C)CN1CC(C(=O)NCCOc2ccc3c(c2)OCO3)CC1=O` (stereo not given) | -10.48% | -35.9% |
| `CCS(=O)(=O)c1ccc(N2CCC(NC(=O)C3CCCCC3)CC2)cc1` | 5.496% | 7.008% |
| `O=C(CN1CCOC(Cn2cccn2)C1)NCc1ccccn1` (stereo not given) | 18.86% | -22.72% |
| `CC(C)Oc1ncccc1CNC(=O)c1cc[nH]n1` | 10.47% | -2.017% |
| `c1cnc(N2CCCC3(COCCN(c4nncs4)C3)C2)cn1` (stereo not given) | -13.72% | -12.82% |
| `O=C(c1nccc2ccccc12)N1CCCCC1Cn1cccn1` (stereo not given) | -3.105% | 4.426% |
| `Cc1nc(CN2CCc3nc(N4CCCC4)nc(NC(C)C)c3C2)cs1` | 19.7% | 58.21% and 55.22% |
| `O=C(CN1CCOC(Cn2cncn2)C1)NC(C1CC1)C1CC1` (stereo not given) | -4.441% | -23.39% |
| `Cl.OC1CCN(c2cncc(CCC3CCCN3)n2)CC1` (stereo not given) | 16.72% and 4.465% | -1.449% |
| `Cn1nc(Cn2cccc2)c2c1CN(Cc1ccsc1)C2.O=C(O)C(F)(F)F` | -5.172% | 39.4% |
| `Cc1ncnc2c1CCN(C(=O)c1cccn1C)CC2` | -4.07% and -7.286% | 17.82% |
| `O=C(c1ccon1)N1CCCCC1c1nc2cc(F)ccc2[nH]1` (stereo not given) | 31.16% | -2.97% |
| `CN(Cc1cnn(C)c1)C(=O)Nc1cccnc1-n1cccn1` | 5.852% | 26.27% |
| `CCn1cc(CNc2ccc(F)c(N3CCCS3(=O)=O)c2)cn1` | 11.51% | -35.77% |
| `COc1ccc(-c2nc3c([nH]2)CCNC3)c(OC)c1OC` | -2.627% | -22.2% |
| `Cn1c(CN2CCCC2c2noc(C3CC3)n2)cc(=O)n(C)c1=O` (stereo not given) | -21.05% | -20.33% |
| `CCCC(C)CS(=O)(=O)NCCc1csc(N2CCCC2)n1` (stereo not given) | 3.522% | 10.95% |
| `Cn1ccc2c(C(=O)NCCCN3CCCC3)cccc21` | 10.87% | 34.08% |
| `Cc1nc(C)n(CC2CCCN(Cc3nc(C4CC4)no3)C2)n1` (stereo not given) | 6.415% | -4.652% |
| `NS(=O)(=O)c1cnn(CCC(=O)N(Cc2ccccc2)C2CC2)c1` | 4.638% | 6.013% |

The last 3 entries again:

- Cn1ccc2c(C(=O)NCCCN3CCCC3)cccc21 | A: 10.87%; B: 34.08%
- Cc1nc(C)n(CC2CCCN(Cc3nc(C4CC4)no3)C2)n1 (stereo not given) | A: 6.415%; B: -4.652%
- NS(=O)(=O)c1cnn(CCC(=O)N(Cc2ccccc2)C2CC2)c1 | A: 4.638%; B: 6.013%